Values quoted from earlier work, collected in patent US8309536B2, “Implant improving local bone formation” (priority 2005, dated 2012).
Some results were stated once for a whole list of compounds, not compound by compound.

Tested on: bone resorption
Details: inhibiting bone resorption; cited from earlier work

For NCCC(O)(P(=O)(O)O)P(=O)(O)O [pamidronate], the “potency relative to first generation bisphosphonates such as etidronate or clodronate” value is given as 10-100 fold.
